Results are given in words; binding and its absence hold for the method and conditions named. In cells and extracts the contact can be indirect. Some entries that bind do so weakly or less than the wild type. Tags and fused reporters may be left off the sequences shown.
How the values were obtained:
[1] = target: T1, RFP-U1-A (Arabidopsis thaliana) (UniProt Q39244); test: co-IP; proteins transiently co-expressed in N. benthamiana; RFP-trap beads (Chromotek), 1 h at 4 °C; lysis buffer 50 mM Tris-HCl pH 7.5, 150 mM NaCl, 10% glycerol, 0.5% Triton X-100, 0.5% Nonidet P 40 Substitute; blots with RFP-, HA- and G/YFP-specific antibodies
T1 sequence: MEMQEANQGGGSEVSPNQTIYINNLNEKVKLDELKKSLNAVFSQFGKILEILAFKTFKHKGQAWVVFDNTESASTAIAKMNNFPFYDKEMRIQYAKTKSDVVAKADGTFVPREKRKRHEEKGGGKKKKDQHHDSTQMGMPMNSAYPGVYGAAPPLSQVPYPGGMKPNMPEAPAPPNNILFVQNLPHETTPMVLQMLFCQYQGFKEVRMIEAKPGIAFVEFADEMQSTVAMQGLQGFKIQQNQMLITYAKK

[2] = target: T2, GFP-U1-A (Arabidopsis thaliana) (UniProt Q39244); test: co-IP; proteins transiently co-expressed in N. benthamiana; immunoprecipitation with a GFP-affinity matrix; blots with GFP- and MYC-specific antibodies
T2 sequence: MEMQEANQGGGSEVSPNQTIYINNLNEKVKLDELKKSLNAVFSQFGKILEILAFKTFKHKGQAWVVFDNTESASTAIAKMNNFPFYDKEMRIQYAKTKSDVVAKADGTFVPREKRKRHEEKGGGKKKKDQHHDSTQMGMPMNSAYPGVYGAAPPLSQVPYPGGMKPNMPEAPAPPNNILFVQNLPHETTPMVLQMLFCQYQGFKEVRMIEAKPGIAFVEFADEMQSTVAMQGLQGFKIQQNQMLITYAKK

Binder | binding [1] | binding [2]
HA-CPSF73-I (protein, UniProt Q9C952 1-693) MASSSTSLKRREQPISRDGDQLIVTPLGAGSEVGRSCVYMSFRGKNILFDCGIHPAYSGMAALPYFDEIDPSSIDVLLITHFHIDHAASLPYFLEKTTFNGRVFMTHATKAIYKLLLTDYVKVSKVSVEDMLFDEQDINKSMDKIEVIDFHQTVEVNGIKFWCYTAGHVLGAAMFMVDIAGVRILYTGDYSREEDRHLRAAELPQFSPDICIIESTSGVQLHQSRHIREKRFTDVIHSTVAQGGRVLIPAFALGRAQELLLILDEYWANHPDLHNIPIYYASPLAKKCMAVYQTYILSMNDRIRNQFANSNPFVFKHISPLNSIDDFNDVGPSVVMATPGGLQSGLSRQLFDSWCSDKKNACIIPGYMVEGTLAKTIINEPKEVTLMNGLTAPLNMQVHYISFSAHADYAQTSTFLKELMPPNIILVHGEANEMMRLKQKLLTEFPDGNTKIMTPKNCESVEMYFNSEKLAKTIGRLAEKTPDVGDTVSGILVKKGFTYQIMAPDELHVFSQLSTATVTQRITIPFVGAFGVIKHRLEKIFESVEFSTDEESGLPALKVHERVTVKQESEKHISLQWSSDPISDMVSDSIVALILNISREVPKIVMEEEDAVKSEEENGKKVEKVIYALLVSLFGDVKLGENGKLVIRVDGNVAQLDKESGEVESEHSGLKERVRVAFERIQSAVKPIPLSAS | binds | 
YFP-tagged RBP47B (protein, UniProt Q0WW84 1-435) MQTTNGSDSTLATSGATPPNQQTPPPPQQWQQQQQQQQQWMAAMQYPPAAAMMMMQQQQMLMYPHQYVPYNQGPYQQHHPQLHQYGSYQQHQHQQHKAIDRGSGDDVKTLWVGDLLHWMDETYLHSCFSHTGEVSSVKVIRNKLTSQSEGYGFVEFLSRAAAEEVLQNYSGSVMPNSDQPFRINWASFSTGEKRAVENGPDLSVFVGDLSPDVTDVLLHETFSDRYPSVKSAKVVIDSNTGRSKGYGFVRFGDENERSRALTEMNGAYCSNRQMRVGIATPKRAIANQQQHSSQAVILAGGHGSNGSMGYGSQSDGESTNATIFVGGIDPDVIDEDLRQPFSQFGEVVSVKIPVGKGCGFVQFADRKSAEDAIESLNGTVIGKNTVRLSWGRSPNKQWRGDSGQQWNGGYSRGHGYNNGGGYANHHDSNNYHGEN | binds | 
YFP-FY (protein, UniProt Q6NLV4 1-647) MYAGGDMHRGSQMPQPPMMRQSSASSTNINPDYHHPSGPFDPNVDSFGAKRMRKHTQRRAVDYTSTVVRYIQARTWQRDSRDRTTLQPTPAAAVDMLPTVAYSDNPSTSFAAKFVHASLNKNRCSINRVLWTPSGRRLITGSQSGEFTLWNGQSFNFEMILQAHDQPIRSMVWSHNENYMVSGDDGGTLKYWQNNMNNVKANKTAHKESIRDLSFCKTDLKFCSCSDDTTVKVWDFTKCVDESSLTGHGWDVKSVDWHPTKSLLVSGGKDQLVKLWDTRSGRELCSLHGHKNIVLSVKWNQNGNWLLTASKDQIIKLYDIRTMKELQSFRGHTKDVTSLAWHPCHEEYFVSGSSDGSICHWIVGHENPQIEIPNAHDNSVWDLAWHPIGYLLCSGSNDHTTKFWCRNRPADNPRDVLMQNQGYNEQGFGRQPDNFQPSEASPIPGAFVPGLTRNEGTIPGIGIAMPFDASSQGDHKQPLPGSMALGAPPLPPGPHPSLLGSGQQQGYQQQQQHQGHPQQMLPMPNMPHHQLPPSSHMPLHPHHLPRPMQMPPHGHMPPPSMPMSHQMPGSMGMQGGMNPQMSQSHFMGAPSGVFQGQPNSGGPQMYPQGRGGFNRPQMIPGYNNPFQQQQQPPLPPGPPPNNNQQHQ | binds | 
MYC-tagged CBP20 (protein, UniProt Q9XFD1 1-257) MASLFKEQAKLSAYRDRRFSGTQEEFDEALRASTTVYIGNVSFYTTEEQLYELFSRAGEIKKIIMGLDKNTKTPCGFCFVLFYSREDTEDAVKYISGTILDDRPIRVDFDWGFQEGRQWGRGRSGGQVRDEYRTDYDPARGGYGKLVQKELEAQRQLVDYGTGSLGAYPQAAPTNYGNGRRGGGNYGQGGQNRHGRGDYHRKRQRDDDRYGRDNSRRNTDHESRRDTDSDMRPEKNPRFRESGDSDDDGEDDRKRRS |  | binds
